# Assay results reported in publication PMC4977709.
# The exact form of at least one protein or probe is not confirmed. A weaker result is weaker than the reference pair of the same experiment. Where a protein sequence is shown, tags need not be part of it. At least one verdict rests on a figure or table, not on a statement of the authors.
# Molecular target: T1, BarR (Sulfolobus acidocaldarius) (UniProt Q4J717)
# T1 sequence (looked up, limits assumed): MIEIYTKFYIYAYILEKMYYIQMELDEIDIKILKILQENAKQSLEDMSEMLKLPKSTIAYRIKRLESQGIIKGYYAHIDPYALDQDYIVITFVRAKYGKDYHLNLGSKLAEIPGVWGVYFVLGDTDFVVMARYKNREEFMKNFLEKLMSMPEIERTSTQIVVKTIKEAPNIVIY
# Experiment: EMSA
# Settings: EMSA with 32P-labelled PCR fragments, excess non-specific competitor DNA, BarR 0.25/1.25/2.5 uM, with or without 1 mM beta-alanine, recombinant protein, protein details: His-tag, label: 5'-32P on one strand, probe letters rebuilt from the primers and the genome
# [1] = no beta-alanine, 0.25-2.5 uM BarR
Sequence,binding result (1 mM beta-alanine),binding result [1]
CAACACTGATATACCAAGGATAAGATAATAAACAATATCCCATTTTTATAAGTTTTATTCTTTTTTATACTACTCCCCTAAATATTTAATTATACTATGTATAAGGAGTTTTAATTTTAGTCCATAAACATTCATTTAATCTTAATCCAAAATATACTAAGACTGTATTGGAAAATTTTCAATTTTACTTAAGTTATATTAAACTGTATACAAGTTTATTATACTAAAATAAAGGTGAATATGATAGTTAAAGTTTTTAAAATTCTTACAAAACTATTTTTAGTCGTAATAAATAAAAAATATCATTCCTAAGGGGTTGAGATTTAAATAGC (double strand) [Saci2319 target],binds more weakly,binds
CACCTAGCTGAAAAGTCCATCATCCTCTATTTATTTCCCCTTCCTTTTATCTTCCTTTACTCTATCTATGAGGTCAGTAATATCTGGTCTAATCTTATCTAACTGTTCCAACAACTCTAGGTATCTTTTGGATTTTTCTAACACATTTCTCCCCTTCGGAGCTAAGATGTATTCTCTGGTACTCGGTTCAAAATAGATAAGACCACTCTCCTCTAGTACCTTCATATATTTGTAAAATGGGCGAGAACTCAAATTAGTAACATATAACAACTTTGTCTTTTTGACACCAGATCTACACCCTTCTAATATGCTGATAACTATTTGTATTGAACTCCTTTTCTTTCTCCGCATACTGACATCTCTTTATCCCTATATTCTCGTCGTCTAACATAATAAAGTTTTGTATAACATTTAATTTAATGGCACTTG (double strand) [Saci1796 target],binds,binds
CCATAAGAACTTTATCACCTAGCACTGTCTCATATACTCTCATATTTCCAATTTGCCTAATACTAGGTCTTGAAAAGAAACTGGATATAGTTTTAGCTTTATTGGGAGATTCTACAACGAGGAGAACAGTCTTTACTTTTTGCAGTGCAGGCGCAACATTACCCTCATTTTTTAGTTTCGATATCTCATTCCTCTCTTCATTAATTTTTGAAATTAGATTCTTTATTTCTACGTCTCCTGCTGTCCACTTTTCAACATCTAATTCTCGCCATTGTATATCATCTAATATGTATTGCAACTTTTTATTTAGAAGTCTAAACAAATTAAAATCATCGACTAATAGAATAGATAGACCAGTGGTAACGTCTCCTGCATATATCCTGGACGTTCTTCCGCTAGCCTGAACATAGGTAAGATAGTCTGGAATCAGTATATCATTATCAGGAGATAATACGAAATCTCCTATCTCGCTTATTCTCTTCAGTACATTTTGATTACTAAG (double strand) [Saci0839 target],binds more weakly,binds
GAGACCCAAACGCTGTTCATCATTATATCTGGTATTGGTATTATGTAGACTTTTGACAGATCTAAATTTTCTTTGTCCAGCGTTCTTCTTATCATTTCTATACGTTCTCCTGCAGTAAATGGATTGGATAGTGTATGACTCTCCTGAGCACTTCCTATAACTATGATTAATTCATCAACATGTTTCATTGACCATTTTACAACCTCTAAGTGACCTATGTGGAATGGTTGGAATCTTCCTGGATATAAGCCTCTATGCAAACATCTTCACCTTCTTTTACTCCCAAAATATTTGAAGCACTGCTCATATTAATTCCAATCTCTATAAATCCGTAACCATTGCTGTATAAAACTAATTCATTTTCCTTTCC (double strand) [Saci0720 target],,binds more weakly
GAGGGCTTAAGAGAGCTAATGTAAAGCAGGGGGATATAGTTTTAGTGACTGGTGCAGGAGGTGGTGTTGGTATTCATGCCCTTCAGGTTGCTAAAGCTTTAGGAGCAAAAGTAGTAGGAGTAACAAGTGAAGAGAGTAAGGCTAAGATCGTTGGAAAATTTTCAGATTACGTGGTAGTTGGGAACAAGTTTGCTGAAGAGGTTAGAAAGGGATTTGGAGAACCTTCAATAGTAGTGGACAATGTAGGAGGTCCTACTCTTGATGAGAGTATGAGGTCACTGAAAATAGGTGGTAAGATAGTACAAGTAGGGAATATTGATCCCTCTGTCAATTTCAGTCTAAGGCTAGGTTACTTAGTCCTAAAGAATGTTGAGTTAATTGGACATGCCGGGGC (double strand) [Saci1115 target],binds,binds
GAGGTTCTTGATAGGTAATAGAAAGTTTGAATTTAAAGTTGAAAATAGAAGGGTTAAGATACTAGAATTACTACTAAAAAGATCTATAAACACTATAATAGAAAGGTTCATTATACAGAATAAAAATGAGATAGACGTAGAGTTAAATAAAAATCACAGAATTAAGCTTCTTATTGAGAAATATACAAAAATCATAGGCAGTATATTAGAAAATCAACAGAAGGCTTAATTTTACTGAGAATAAGTCCACTTCTTACTCTTTTTCAGCTAAGCCTAACAAAAAATCCTCTAAACCGTTTTCCAGTTTATATGTACCCAACTCTGTTTTCCACACTTTGCTCACTTTTGCATACCTAATAAATGAGGATCCCTGAATTAGCCAAGGCTGAGTAGCAAAGAGAGTAATGAACTTCTTAAACTCGTCTATTAAAAACACTTTACCAGGAGATACGATAAAGAGACAATCTACGTTTAAAGAACTATAGTTAGGAGCTAAGGCGTCATTATAAGACTCAATTAAAACATTAG (double strand) [Saci0061 target],binds more weakly,binds
GCGATAGTATTTTCACAGGGTAAGAGCTTTATCCAGTAAACGTAAAATTTTTAAATAAATAAGTAAATTTCTCTCCACTCATCACTTAATCTTATTTTATCGTATTTAAGAAAAATTTTAAATAGTAGTAAATTAAACAATGTTTAAGGTCTCGTTGGATGGTATATAGAGTTAGCATTCTAGGTGTTAAGGGAGGAGTTGGAAAGTCTACAATAGCTTTGTCCCTTGGAAAGGCTCTAGCCTTGAAGGGAAAGAAAGTTCTTTTGATAGAAAGAGATATGGTAGGTTATGCATCATTCGCATTCGGAATTAAAAGAAAGGGTATATTGGCTAAATTAGCCGATGGAGAAGAACATTTTGAAGAAAG (double strand) [Saci1050 target],,binds more weakly
GGTCAAGTACAAATAGACCACCTGTAGGATACTTCTCCTCTAAATTCATTGTCCCTATCCAATATCTTCCCATCTGATCACACTTTCCGTCGTTAAACCTGTTCCTAGAATCCCAGTCTTTAACCTCATATAATAAGGAGATTTGATCCTTATCTTTTACTAAGTAAAATCCGTTTCCTGCAGTGACTATTATGCCACCTCTTTTAGTAGGTTGTAATGAACTAACATAAGTTGGAAATTTTACAGCCCAATGTGTGCCATCTTCTTTCAGATTGTGCAATTCTCCCTTGGGTATATCAACGAAGTACAATGAGTTATATGCCCATATAGGACCTTCATACAATTTCCCCTTCTGATTAAATATCCTGATCATTAGTTTATCACCTCATTCAT (double strand) [Saci1674 target],binds,binds
